According to patent US20260049103A1 (WINKEY TECHNOLOGY USA INC, priority 2023, published 2026):
Non-standard residues stand in square brackets, D forms with d. *: point of attachment. Palmitoyl = CCCCCCCCCCCCCCCC(=O)*; Nle = CCCC[C@H](N)C(=O)O

Experiment: general procedure: Fmoc solid-phase peptide synthesis; Amide Resin (substitution degree 1.72 mmol/g, 100-200 mesh) with Fmoc-Linker; Wang Resin; HOBt/DIC
Details: whole synthesis, scale of the general procedure 9 g of Amide Resin, 10 g of Wang Resin

Substance	final purity (method not given) [%]
Palmitoyl-G[Nle]KLY-NH2	97.16
Palmitoyl-G[Nle]RLY-NH2	98.23
Palmitoyl-KVKLY-NH2	96.55
Palmitoyl-KVKLY-OH	97.615
Palmitoyl-VKLYGS-NH2	97.08
